Converted amounts (≈) assume the structure as drawn.
Test system: voltage-dependent Ca2+ channels (isolated rat ileum)
Assay: Calcium antagonism: relaxation of K+
Settings: K+ (80 mM)-induced contractions of rat ileum; mean ± SD, three independent experiments

COC(=O)C1=C(C)NC(C)=C(C(=O)OC)C1c1ccccc1[N+](=O)[O-] [Nifedipine, reference compound]
IC50: 21.00 ± 1.20 µg/mL (≈ 60.6 µM)

From paper PMC8403975 (Bioorganic Chemistry, 2021)
